Laboratory results as given in article PMC4700559.
No constants are given. Whether binding was seen depends on the method and setting. Binding seen in cells or lysates may run through a third protein. Binding can be weak; no strength is given.

Protein sequences, listed by entry. Tags and fused reporters are not part of them. Lines headed by an entry give the natural chain unless they say otherwise; changes in a name come on top.
UniProt Q5TKA1: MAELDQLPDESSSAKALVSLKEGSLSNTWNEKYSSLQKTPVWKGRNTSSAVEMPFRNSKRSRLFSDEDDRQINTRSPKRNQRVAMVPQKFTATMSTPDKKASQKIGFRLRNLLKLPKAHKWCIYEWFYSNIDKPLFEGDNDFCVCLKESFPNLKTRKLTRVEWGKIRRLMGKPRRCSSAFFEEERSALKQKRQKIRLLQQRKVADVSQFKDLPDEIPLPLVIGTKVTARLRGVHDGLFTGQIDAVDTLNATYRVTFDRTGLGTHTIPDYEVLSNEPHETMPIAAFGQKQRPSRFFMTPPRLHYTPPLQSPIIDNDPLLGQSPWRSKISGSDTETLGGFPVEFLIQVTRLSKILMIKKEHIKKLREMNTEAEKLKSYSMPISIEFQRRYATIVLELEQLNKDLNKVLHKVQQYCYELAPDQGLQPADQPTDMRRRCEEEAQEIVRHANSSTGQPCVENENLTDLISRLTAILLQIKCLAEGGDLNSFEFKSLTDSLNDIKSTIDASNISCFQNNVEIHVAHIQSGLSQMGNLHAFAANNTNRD
UniProt Q08999: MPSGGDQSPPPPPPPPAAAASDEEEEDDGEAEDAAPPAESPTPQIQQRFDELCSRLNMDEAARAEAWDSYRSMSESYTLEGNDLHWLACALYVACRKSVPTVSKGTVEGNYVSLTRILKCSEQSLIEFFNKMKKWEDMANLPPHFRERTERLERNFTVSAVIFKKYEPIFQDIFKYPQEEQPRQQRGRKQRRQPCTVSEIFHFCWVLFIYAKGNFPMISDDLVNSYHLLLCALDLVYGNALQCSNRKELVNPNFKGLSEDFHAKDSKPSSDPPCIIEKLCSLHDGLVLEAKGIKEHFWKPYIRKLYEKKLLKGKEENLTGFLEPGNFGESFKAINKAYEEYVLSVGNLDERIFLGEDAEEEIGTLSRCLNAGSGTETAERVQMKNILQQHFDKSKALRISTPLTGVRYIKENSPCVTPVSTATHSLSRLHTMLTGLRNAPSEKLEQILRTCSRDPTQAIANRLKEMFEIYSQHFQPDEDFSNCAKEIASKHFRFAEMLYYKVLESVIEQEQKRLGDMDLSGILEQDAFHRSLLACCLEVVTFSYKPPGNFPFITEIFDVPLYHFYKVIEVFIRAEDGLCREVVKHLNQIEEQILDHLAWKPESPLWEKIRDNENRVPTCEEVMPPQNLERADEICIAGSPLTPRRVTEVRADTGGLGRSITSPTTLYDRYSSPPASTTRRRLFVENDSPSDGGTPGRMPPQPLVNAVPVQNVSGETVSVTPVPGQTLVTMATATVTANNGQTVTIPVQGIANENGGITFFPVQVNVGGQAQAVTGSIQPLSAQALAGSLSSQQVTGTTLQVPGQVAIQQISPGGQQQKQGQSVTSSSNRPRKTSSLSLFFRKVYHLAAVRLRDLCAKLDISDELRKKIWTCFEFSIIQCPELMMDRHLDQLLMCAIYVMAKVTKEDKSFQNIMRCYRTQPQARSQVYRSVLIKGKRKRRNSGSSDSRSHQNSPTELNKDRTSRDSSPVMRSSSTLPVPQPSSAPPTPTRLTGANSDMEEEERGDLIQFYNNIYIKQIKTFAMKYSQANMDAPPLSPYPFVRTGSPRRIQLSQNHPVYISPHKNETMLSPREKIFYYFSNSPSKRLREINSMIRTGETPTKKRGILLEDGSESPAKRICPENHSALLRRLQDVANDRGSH

Molecular target: Lin-9 (core subunit of the DREAM complex) (human (endogenous in CaSki and T98G)) (UniProt Q5TKA1)
Experiment: co-IP; nuclear lysates of T98G cells transfected with HA-p130 constructs alone or together with 16E7 or 48E7, precipitated with Lin-9 antibody or pre-immune serum; HA-p130 detected on western blots

- binding: binds
Substance: HA-tagged p130PM22 (p130 mutated at the 22 CDK phosphorylation sites) (from UniProt Q08999)
